Assay results as given in PMC9151517.
These are yes or no findings as the source states them, for the method shown. In cells and extracts the contact can be indirect. Some binding calls cover weakened binding; strength is not graded here.

By UniProt entry, the sequences of proteins in these tests, tags left out. Residues count along the entry.
UniProt P58281, residues 88-960: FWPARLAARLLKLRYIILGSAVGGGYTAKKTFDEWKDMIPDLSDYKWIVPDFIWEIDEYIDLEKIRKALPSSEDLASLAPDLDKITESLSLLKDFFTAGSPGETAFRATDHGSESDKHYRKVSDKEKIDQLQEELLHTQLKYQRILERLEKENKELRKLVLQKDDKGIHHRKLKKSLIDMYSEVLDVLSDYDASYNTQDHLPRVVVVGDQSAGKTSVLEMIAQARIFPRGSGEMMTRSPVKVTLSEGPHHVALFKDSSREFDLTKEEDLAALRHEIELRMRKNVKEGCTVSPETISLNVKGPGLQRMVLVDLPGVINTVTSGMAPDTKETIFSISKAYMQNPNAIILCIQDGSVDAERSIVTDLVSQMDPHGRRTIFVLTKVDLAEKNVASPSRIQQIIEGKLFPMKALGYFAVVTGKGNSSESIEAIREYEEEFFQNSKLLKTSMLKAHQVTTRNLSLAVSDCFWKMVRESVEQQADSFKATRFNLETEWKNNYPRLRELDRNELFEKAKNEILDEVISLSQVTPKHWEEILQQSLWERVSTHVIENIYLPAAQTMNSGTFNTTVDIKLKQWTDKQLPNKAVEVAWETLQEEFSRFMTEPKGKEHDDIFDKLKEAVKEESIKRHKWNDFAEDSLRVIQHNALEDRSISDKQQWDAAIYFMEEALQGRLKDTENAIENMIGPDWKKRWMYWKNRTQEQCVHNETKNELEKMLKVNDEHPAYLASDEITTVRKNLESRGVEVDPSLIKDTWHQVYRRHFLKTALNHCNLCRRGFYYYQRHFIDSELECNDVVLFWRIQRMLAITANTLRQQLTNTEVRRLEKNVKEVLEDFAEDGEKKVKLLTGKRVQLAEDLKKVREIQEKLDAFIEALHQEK

Target: Optic Atrophy 1 (OPA1) (mouse (endogenous in MEFs)) (UniProt P58281)
Test: cross-linking; Src+/+ and Src-/- MEFs treated with the crosslinker bismaleimidohexane (1 mM) during 30 min at 37 °C, directly processed for SDS-PAGE; immunoblotting of OPA1 monomers and oligomers

## Optic Atrophy 1 (OPA1) (from UniProt P58281 88-960)
  binding: binds
